Some of these results come from one statement about several compounds together.
target: T1, CCR1 (Homo sapiens, UniProt P32246); assay: CCR1 inhibition in THP-1 cells (THP-1 FLIPR assay, RANTES induced calcium flux, and/or THP-1 whole cell radioligand binding assay, [125I]-MIP-1α; the patent does not say which gave the values); type: cell-based; conditions: THP-1 cells endogenously expressing CCR1; assay (FLIPR or binding) and parameter not specified
T1 construct: a monocytic derived cell line that endogenously expresses CCR1; host or cells: THP-1 cells
T1 sequence (P32246 1-355): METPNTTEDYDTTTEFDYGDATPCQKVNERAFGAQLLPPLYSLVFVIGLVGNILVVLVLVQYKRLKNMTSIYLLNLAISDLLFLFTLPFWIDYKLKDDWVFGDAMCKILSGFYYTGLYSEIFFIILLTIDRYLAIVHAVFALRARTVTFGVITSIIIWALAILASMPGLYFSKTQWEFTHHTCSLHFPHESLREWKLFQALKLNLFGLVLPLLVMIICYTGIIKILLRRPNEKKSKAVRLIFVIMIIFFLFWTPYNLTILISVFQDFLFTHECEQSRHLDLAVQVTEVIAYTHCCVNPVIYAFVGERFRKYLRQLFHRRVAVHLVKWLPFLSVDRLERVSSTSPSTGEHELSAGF

activity, less than 1 μM:
O=C(c1ccc(Cl)cc1)N1C[C@@H](O)[C@H](N2CCN(c3cccc(Cl)c3Cl)CC2)C1 [Compound 179, (3R,4R)-1-[(4-chlorophenyl)carbonyl]-4-[4-(2,3-dichlorophenyl)piperazin-1-yl]pyrrolidin-3-ol]
CC(C(=O)N1C[C@@H](O)[C@H](N2CCN(C(=O)c3ccc(Cl)cc3)CC2)C1)(c1ccccc1)c1ccccc1 (stereo in doubt) [Compound 34, 4-[4-(4-chlorobenzoyl)piperazin-1-yl]-1-(2,2-diphenylpropanoyl)pyrrolidin-3-ol]
COc1cccc2cc(C(=O)N3C[C@H](O)[C@@H](N4CCN(C(=O)c5ccc(Cl)cc5)CC4)C3)oc12 (stereo in doubt) [Compound 205, 4-[4-(4-chlorobenzoyl)piperazin-1-yl]-1-[(7-methoxy-1-benzofuran-2-yl)carbonyl]pyrrolidin-3-ol]
C[C@H]1CN(Cc2ccc(Cl)cc2)CCN1[C@H]1CN(C(=O)c2ccc(Cl)cc2)C[C@@H]1O [Compound 46, (3S, 4S)-1-(4-chlorobenzoyl)-4-[(2S)-4-(4-chlorobenzyl)-2-methylpiperazin-1-yl]pyrrolidin-3-ol]
O=C(c1cc2cc(Cl)ccc2[nH]1)N1C[C@@H](O)[C@H](N2CCN(Cc3ccc(Cl)cc3)CC2)C1 (stereo in doubt) [Compound 145, 1-[(5-chloro-1H-indol-2-yl)carbonyl]-4-{4-[(4-chlorophenyl)methyl]piperazin-1-yl}pyrrolidin-3-ol]
O=C(c1ccc(Cl)cc1)N1CCN([C@@H]2CN(C(=O)c3ccc(Cl)cc3-c3ccc(Cl)cc3)C[C@H]2O)CC1 (stereo in doubt) [Compound 162, 4-{4-[(4-chlorophenyl)carbonyl]piperazin-1-yl}-1-[(4′,5-dichlorobiphenyl-2-yl)carbonyl]-pyrrolidin-3-ol]
O=C(c1ccc(Br)c(F)c1)N1C[C@H](O)[C@@H](N2CCN(c3cccc(Cl)c3Cl)CC2)C1 (stereo in doubt) [Compound 168, 1-[(4-bromo-3-fluorophenyl)carbonyl]-4-[4-(2,3-dichlorophenyl)piperazin-1-yl]pyrrolidin-3-ol]
O=C(c1ccc(Cl)cc1)N1C[C@H](O)[C@@H](N2CCN(C(=O)c3cccs3)CC2)C1 (stereo in doubt) [Compound 5, 1-(4-chlorobenzoyl)-4-[4-(2-thienylcarbonyl)piperazin-1-yl]pyrrolidin-3-ol]
Cc1cccc(N2CCN([C@H]3CN(C(=O)c4ccc(Cl)cc4)C[C@@H]3O)CC2)c1C (stereo in doubt) [Compound 173, 1-[(4-chlorophenyl)carbonyl]-4-[4-(2,3-dimethylphenyl)piperazin-1-yl]pyrrolidin-3-ol]
O=C(c1ccc(Cl)cc1)N1CCN([C@@H]2CN(C(=O)c3ccc(Br)c(F)c3)C[C@H]2O)CC1 (stereo in doubt) [Compound 149, 1-[(4-bromo-3-fluorophenyl)carbonyl]-4-{4-[(4-chlorophenyl)carbonyl]piperazin-1-yl}pyrrolidin-3-ol]
O=C(c1ccc(Cl)cc1)N1C[C@@H](O)[C@H](N2CCN(c3ncnc4cc(Cl)ccc34)CC2)C1 (stereo in doubt) [Compound 158, 1-[(4-chlorophenyl)carbonyl]-4-[4-(7-chloroquinazolin-4-yl)piperazin-1-yl]pyrrolidin-3-ol]
O=C(c1ccc(Cl)cc1)N1CCN([C@H]2CN(C(=O)c3cc4cc(Cl)ccc4o3)C[C@@H]2O)CC1 (stereo in doubt) [Compound 202, 1-[(5-chloro-1-benzofuran-2-yl)carbonyl]-4-[4-(4-chlorobenzoyl)piperazin-1-yl]pyrrolidin-3-ol]
C[C@@H]1CN(Cc2ccc(Cl)cc2)CCN1C1CN(C(=O)c2ccc(Cl)cc2)CC1O (stereo partly drawn) [Compound 32, 1-(4-chlorobenzoyl)-4-[(2R)-4-(4-chloro-benzyl)-2-methylpiperazin-1-yl]pyrrolidin-3-ol]
O=C(c1cccnc1)N1CCN([C@H]2CN(C(=O)c3ccc(Cl)cc3)C[C@@H]2O)CC1 (stereo in doubt) [Compound 3, 1-(4-chlorobenzoyl)-4-[4-(pyridin-3-ylcarbonyl)piperazin-1-yl]pyrrolidin-3-ol]
CCOC(=O)c1cc(Cl)cnc1N1CCN([C@@H]2CN(C(=O)c3ccc(Cl)cc3)C[C@H]2O)CC1 (stereo in doubt) [Compound 146, Ethyl 5-chloro-2-(4-{-1-[(4-chlorophenyl)carbonyl]-4-hydroxypyrrolidin-3-yl}piperazin-1-yl)pyridine-3-carboxylate]
C[C@@H]1CN(Cc2ccc(F)cc2)CCN1[C@H]1CN(C(=O)c2ccc(Cl)cc2)C[C@@H]1O [Compound 31, 1-(4-chlorobenzoyl)-4-[(2R)-4-(4-fluoro-benzyl)-2-methylpiperazin-1-yl]pyrrolidin-3-ol]
O=C(c1ccc(Cl)cc1)N1CCN([C@@H]2CN(C(=O)c3ccc(C(F)(F)F)c(F)c3)C[C@H]2O)CC1 (stereo in doubt) [Compound 35, 4-[4-(4-chlorobenzoyl)piperazin-1-yl]-1-[3-fluoro-4-(trifluoromethyl)benzoyl]pyrrolidin-3-ol]
O=C(c1ccc(Cl)cc1)N1CC(O)C(N2CC3CC2CN3Cc2ccc(Cl)cc2)C1 (stereo not shown) [Compound 9, 1-(4-chlorobenzoyl)-4-[5-(4-chlorobenzyl)-2,5-diazabicyclo[2.2.1]hept-2-yl]pyrrolidin-3-ol]
O=C(c1ccc(Cl)cc1)N1C[C@@H](O)[C@H](N2CCN(C3CCc4cc(Cl)ccc43)CC2)C1 (stereo in doubt) [Compound 157, 4-[4-(5-chloro-2,3-dihydro-1H-inden-1-yl)piperazin-1-yl]-1-[(4-chlorophenyl)-carbonyl]pyrrolidin-3-ol]
O=C(c1ccc(Cl)cc1)N1C[C@H](O)[C@@H](N2CCN(c3cccc4ccccc34)CC2)C1 (stereo in doubt) [Compound 174, 1-[(4-chlorophenyl)carbonyl]-4-(4-naphthalen-1-ylpiperazin-1-yl)pyrrolidin-3-ol]
O=C(c1ccc(Cl)cc1)N1CCN([C@@H]2CN(C(=O)c3ccc(Cl)c(Br)c3)C[C@H]2O)CC1 (stereo in doubt) [Compound 152, 1-[(3-bromo-4-chlorophenyl)carbonyl]-4-{4-[(4-chlorophenyl)carbonyl]piperazin-1-yl}-pyrrolidin-3-ol]
O=C(c1ccc(Cl)cc1)N1C[C@H](O)[C@@H](N2CCN(Cc3ccc(F)c(F)c3)CC2)C1 (stereo in doubt) [Compound 29, 1-(4-chlorobenzoyl)-4-[4-(3,4-difluorobenzyl)-piperazin-1-yl]pyrrolidin-3-ol]
O=C(c1ccc(Cl)c(Br)c1)N1CCN([C@H]2CN(C(=O)c3ccc(Cl)cc3)C[C@@H]2O)CC1 (stereo in doubt) [Compound 135, 4-[4-(3-bromo-4-chlorobenzoyl)piperazin-1-yl]-1-(4-chlorobenzoyl)pyrrolidin-3-ol]
O=C(/C=C/c1ccc(Cl)cc1)N1C[C@@H](O)[C@H](N2CCN(C(=O)c3ccc(Cl)cc3)CC2)C1 [Compound 38, 4-[4-(4-chlorobenzoyl)piperazin-1-yl]-1-[(2E)-3-(4-chlorophenyl)prop-2-enoyl]pyrrolidin-3-ol]
O=C(c1ccc(Cl)cc1)N1C[C@@H](O)[C@H](N2CCN(c3nccc4ccccc34)CC2)C1 (stereo in doubt) [Compound 10, 1-(4-chlorobenzoyl)-4-(4-isoquinolin-1-ylpiperazin-1-yl)pyrrolidin-3-ol]

From patent US8399455B2, “Compounds useful as chemokine receptor antagonists” (Millennium Pharmaceuticals, Inc., priority 2004, dated 2013)
